Measured values reported in patent US20110143366A1, “PROTEIN BIOMARKERS FOR IN VITRO TESTING OF DEVELOPMENTAL TOXICITY AND ENBRYOTOXICITY OF CHEMICAL SUBSTANCES” (PROTEOSYS AG, priority 2008, published 2011).

Tested on: neurally differentiated human embryonic stem cell
Assay: Differential proteomic analysis of lysates from neurally differentiated human embryonic stem cells
Type: cell-based
Conditions: hESC cultures treated with methyl mercury and valproic acid; one count for both treatments

SMILES | Number of protein spots differentially affected by the treatment
[CH3][Hg][Cl] [methyl mercury] | 177
CCCC(CCC)C(=O)O [valproic acid] | 177
